Assay results reported in paper PMC4891818.

Sequences of proteins named here, by UniProt entry; tags and fusion partners are left off. A change or cut given only in a name is not applied to a line headed by its entry. Residues count along the entry.
UniProt P35080: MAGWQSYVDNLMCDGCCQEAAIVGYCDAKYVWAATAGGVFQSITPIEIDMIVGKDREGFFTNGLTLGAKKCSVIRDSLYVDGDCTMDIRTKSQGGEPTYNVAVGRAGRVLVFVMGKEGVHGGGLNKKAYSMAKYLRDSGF
UniProt Q03135: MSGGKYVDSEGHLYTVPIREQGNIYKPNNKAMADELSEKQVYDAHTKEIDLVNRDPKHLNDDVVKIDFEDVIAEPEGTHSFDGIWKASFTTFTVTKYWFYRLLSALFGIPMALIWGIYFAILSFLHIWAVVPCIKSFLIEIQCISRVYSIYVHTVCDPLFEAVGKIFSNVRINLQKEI
UniProt P18206: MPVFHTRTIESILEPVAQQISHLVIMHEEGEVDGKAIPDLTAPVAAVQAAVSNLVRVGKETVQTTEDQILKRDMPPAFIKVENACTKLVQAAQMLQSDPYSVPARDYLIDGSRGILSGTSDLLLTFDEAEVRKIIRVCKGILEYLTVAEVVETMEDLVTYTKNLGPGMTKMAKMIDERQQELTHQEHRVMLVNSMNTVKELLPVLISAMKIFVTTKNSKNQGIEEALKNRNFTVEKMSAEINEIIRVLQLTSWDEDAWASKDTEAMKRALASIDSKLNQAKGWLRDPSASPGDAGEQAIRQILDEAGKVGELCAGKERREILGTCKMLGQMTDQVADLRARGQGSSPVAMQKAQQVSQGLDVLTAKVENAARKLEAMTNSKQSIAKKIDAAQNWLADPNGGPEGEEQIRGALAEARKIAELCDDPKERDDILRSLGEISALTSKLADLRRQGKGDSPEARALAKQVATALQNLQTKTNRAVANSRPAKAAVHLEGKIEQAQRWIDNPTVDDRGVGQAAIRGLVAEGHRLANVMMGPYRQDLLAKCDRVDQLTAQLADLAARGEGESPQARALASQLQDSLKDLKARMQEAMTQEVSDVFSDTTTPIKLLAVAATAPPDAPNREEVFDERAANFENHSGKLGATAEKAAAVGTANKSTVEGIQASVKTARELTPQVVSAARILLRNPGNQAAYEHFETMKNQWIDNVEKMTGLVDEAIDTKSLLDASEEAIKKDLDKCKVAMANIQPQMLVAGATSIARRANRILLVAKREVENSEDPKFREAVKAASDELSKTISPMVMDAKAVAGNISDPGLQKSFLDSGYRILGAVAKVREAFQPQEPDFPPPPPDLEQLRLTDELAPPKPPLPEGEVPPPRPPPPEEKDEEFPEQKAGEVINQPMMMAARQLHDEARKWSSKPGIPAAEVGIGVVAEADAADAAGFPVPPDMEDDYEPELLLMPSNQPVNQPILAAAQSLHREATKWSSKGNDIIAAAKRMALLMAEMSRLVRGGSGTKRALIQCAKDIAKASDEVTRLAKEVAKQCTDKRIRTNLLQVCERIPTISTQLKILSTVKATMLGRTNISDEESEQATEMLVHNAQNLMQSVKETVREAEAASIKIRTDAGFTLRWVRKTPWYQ
UniProt P35221: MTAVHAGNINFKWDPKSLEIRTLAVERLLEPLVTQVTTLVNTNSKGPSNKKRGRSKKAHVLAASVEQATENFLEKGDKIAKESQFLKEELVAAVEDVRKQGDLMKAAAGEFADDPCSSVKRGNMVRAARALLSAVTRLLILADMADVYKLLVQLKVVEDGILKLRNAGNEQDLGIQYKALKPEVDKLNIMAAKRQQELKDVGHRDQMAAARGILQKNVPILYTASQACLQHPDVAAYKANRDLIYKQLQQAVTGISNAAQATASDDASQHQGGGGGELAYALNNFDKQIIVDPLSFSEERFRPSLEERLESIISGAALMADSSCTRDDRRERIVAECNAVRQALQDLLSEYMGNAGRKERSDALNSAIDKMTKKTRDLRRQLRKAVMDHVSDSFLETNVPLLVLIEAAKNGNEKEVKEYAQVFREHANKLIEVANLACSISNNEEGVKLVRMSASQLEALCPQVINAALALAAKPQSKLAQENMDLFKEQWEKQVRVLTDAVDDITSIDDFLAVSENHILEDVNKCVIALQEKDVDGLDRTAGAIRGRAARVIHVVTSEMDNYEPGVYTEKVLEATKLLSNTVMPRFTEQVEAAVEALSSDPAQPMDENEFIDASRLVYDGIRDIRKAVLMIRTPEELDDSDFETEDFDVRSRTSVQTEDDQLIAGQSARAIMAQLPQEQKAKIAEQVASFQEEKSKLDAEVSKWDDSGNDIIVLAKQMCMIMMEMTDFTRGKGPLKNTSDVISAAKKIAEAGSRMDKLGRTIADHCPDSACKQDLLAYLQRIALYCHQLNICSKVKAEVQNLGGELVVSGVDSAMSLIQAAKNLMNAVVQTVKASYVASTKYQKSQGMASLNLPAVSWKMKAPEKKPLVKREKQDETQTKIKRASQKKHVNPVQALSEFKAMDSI
UniProt P35222: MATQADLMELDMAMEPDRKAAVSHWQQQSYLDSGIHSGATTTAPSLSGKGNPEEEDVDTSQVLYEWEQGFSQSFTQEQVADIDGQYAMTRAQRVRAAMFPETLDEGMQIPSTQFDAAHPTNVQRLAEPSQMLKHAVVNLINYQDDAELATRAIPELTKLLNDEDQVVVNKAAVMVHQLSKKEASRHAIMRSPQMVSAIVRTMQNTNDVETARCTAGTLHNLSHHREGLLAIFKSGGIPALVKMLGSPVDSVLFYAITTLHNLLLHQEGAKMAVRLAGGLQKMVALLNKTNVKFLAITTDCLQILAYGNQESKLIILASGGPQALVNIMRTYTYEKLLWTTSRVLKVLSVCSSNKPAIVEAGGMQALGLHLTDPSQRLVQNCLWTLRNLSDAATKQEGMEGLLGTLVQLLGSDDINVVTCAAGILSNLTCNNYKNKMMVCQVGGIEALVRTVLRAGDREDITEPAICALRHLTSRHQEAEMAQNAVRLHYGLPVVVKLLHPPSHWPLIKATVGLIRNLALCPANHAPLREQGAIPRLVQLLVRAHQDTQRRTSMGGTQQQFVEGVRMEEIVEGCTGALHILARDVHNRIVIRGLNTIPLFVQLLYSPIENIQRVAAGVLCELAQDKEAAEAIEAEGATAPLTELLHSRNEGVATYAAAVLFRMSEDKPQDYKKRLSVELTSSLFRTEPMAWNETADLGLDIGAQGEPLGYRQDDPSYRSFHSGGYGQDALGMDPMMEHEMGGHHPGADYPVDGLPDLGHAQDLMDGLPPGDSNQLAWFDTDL
UniProt P29350: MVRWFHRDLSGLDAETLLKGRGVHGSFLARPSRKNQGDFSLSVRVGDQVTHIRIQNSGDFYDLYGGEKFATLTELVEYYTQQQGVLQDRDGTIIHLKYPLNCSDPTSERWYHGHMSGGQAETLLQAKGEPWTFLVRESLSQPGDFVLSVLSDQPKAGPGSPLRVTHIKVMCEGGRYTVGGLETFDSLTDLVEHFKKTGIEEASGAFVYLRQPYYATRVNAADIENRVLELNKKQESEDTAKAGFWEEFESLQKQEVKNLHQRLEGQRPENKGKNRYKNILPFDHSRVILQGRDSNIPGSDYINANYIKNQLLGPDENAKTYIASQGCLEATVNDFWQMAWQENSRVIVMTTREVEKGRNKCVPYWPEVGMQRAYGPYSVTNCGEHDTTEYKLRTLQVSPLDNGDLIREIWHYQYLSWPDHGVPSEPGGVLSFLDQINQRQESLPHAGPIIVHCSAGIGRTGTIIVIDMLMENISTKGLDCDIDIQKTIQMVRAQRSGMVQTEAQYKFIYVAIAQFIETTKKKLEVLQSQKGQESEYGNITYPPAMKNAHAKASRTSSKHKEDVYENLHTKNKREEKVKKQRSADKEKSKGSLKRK
UniProt Q9Y6J8: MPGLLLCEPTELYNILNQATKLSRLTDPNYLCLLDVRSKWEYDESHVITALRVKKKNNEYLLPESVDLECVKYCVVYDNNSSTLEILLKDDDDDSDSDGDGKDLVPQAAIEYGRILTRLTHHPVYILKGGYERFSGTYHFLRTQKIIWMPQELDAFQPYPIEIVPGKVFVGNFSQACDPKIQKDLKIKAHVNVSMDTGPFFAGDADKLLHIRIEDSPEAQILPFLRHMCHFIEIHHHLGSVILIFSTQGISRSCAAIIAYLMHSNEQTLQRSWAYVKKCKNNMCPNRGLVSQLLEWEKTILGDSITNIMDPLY
UniProt Q9UI08: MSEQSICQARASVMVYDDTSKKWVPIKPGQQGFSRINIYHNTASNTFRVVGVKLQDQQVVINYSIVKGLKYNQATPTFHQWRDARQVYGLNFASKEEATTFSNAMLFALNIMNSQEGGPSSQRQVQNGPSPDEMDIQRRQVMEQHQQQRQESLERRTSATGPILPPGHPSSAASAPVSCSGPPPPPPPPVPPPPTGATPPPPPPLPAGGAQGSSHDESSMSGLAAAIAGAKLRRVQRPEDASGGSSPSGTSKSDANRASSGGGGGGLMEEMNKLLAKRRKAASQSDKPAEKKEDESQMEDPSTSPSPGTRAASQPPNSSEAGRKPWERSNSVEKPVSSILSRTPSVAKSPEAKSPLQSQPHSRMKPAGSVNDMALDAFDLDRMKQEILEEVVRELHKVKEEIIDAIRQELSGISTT
UniProt Q7KZI7: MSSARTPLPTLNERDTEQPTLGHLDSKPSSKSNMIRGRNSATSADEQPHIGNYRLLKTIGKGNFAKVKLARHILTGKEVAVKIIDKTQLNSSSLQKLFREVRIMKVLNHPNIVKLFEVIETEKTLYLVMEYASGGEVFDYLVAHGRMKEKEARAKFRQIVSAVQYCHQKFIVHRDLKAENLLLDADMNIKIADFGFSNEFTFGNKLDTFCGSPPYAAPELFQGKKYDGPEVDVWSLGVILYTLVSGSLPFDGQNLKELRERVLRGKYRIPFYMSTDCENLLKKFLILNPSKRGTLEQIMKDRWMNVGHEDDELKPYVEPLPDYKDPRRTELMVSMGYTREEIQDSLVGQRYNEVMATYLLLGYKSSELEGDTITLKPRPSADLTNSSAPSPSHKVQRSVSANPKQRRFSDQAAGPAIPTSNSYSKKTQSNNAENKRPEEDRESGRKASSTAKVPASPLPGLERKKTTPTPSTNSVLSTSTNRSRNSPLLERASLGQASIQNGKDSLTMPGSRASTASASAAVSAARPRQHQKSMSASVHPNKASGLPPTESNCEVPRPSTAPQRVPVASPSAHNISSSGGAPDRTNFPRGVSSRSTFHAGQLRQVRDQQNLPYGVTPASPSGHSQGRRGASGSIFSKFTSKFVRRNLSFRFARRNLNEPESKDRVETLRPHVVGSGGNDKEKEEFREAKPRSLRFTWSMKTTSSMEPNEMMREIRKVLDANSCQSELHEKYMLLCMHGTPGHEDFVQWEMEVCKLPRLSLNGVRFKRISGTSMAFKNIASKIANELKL
UniProt P22223, residues 108-829: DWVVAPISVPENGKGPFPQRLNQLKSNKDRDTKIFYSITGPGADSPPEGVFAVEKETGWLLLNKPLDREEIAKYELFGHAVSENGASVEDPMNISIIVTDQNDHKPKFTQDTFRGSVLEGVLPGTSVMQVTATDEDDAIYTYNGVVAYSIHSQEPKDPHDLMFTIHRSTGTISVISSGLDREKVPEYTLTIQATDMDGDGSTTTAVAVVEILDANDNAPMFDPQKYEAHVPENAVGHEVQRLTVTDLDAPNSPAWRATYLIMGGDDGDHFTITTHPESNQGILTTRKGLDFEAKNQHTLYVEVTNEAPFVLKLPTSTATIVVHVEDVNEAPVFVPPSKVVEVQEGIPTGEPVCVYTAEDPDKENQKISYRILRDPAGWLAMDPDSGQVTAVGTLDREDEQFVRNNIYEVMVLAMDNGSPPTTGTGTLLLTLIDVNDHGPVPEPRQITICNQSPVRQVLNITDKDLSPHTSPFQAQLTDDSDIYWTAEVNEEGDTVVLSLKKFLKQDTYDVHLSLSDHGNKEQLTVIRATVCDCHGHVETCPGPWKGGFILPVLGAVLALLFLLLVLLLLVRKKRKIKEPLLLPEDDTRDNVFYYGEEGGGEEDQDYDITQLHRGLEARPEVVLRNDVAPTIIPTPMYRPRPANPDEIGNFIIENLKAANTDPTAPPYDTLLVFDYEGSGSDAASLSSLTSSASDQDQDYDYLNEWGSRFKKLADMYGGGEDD
UniProt Q7Z698: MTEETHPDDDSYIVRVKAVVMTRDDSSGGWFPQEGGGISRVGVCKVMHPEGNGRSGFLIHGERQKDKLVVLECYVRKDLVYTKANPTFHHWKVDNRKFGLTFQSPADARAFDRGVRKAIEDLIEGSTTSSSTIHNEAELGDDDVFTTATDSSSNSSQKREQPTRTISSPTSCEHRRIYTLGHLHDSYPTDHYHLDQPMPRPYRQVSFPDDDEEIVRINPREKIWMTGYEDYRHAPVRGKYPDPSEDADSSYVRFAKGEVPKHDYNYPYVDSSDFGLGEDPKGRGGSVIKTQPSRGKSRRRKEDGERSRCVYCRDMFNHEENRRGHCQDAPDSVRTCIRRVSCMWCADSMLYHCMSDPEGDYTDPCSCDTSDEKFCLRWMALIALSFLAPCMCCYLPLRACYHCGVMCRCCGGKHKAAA

Key:
Experiment in all cases: affinity purification with mass spectrometry; Flag-HA-tagged bait stably expressed in MCF10A cells; lysis in 50 mM Tris-HCl pH 7.5, 150 mM NaCl, 0.5% Nonidet P40, 4 °C; tagged bait immunoprecipitated, LC-MS/MS, CompPASS scoring of high confidence interacting proteins
[1] = biological target: FLAG-HA-tagged profilin2 (PFN2) bait (human) (UniProt P35080)
[2] = biological target: T1, FLAG-HA-tagged NEK8 bait (human) (UniProt Q86SG6)
T1 sequence: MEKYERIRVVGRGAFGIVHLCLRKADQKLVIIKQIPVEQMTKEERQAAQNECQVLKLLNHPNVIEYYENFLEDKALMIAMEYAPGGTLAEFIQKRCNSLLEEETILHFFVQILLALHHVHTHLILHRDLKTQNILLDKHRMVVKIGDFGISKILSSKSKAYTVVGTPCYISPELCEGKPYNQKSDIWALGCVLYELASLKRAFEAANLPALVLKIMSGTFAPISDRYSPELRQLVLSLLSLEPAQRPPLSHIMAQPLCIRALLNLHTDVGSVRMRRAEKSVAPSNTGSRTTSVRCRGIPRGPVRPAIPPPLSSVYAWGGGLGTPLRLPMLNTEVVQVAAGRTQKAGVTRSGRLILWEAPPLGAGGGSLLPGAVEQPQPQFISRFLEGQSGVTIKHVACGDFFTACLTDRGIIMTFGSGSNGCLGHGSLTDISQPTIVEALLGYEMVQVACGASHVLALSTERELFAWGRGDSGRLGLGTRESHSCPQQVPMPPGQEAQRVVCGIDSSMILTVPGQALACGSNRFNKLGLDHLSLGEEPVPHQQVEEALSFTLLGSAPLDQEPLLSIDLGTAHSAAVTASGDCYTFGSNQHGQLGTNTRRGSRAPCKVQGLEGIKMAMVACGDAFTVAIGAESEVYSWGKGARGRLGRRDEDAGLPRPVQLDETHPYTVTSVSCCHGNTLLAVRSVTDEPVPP

[3] = biological target: FLAG-HA-tagged CAV1 bait (human) (UniProt Q03135)
[4] = biological target: vinculin (VCL) bait with C-terminal Flag-HA (human) (UniProt P18206)
[5] = biological target: FLAG-HA-tagged CORO1B bait (human) (UniProt Q9BR76)
[6] = biological target: FLAG-HA-tagged α-catenin (CTNNA1) bait (human) (UniProt P35221)
[7] = biological target: FLAG-HA-tagged β-catenin (CTNNB1) bait (human) (UniProt P35222)
[8] = biological target: FLAG-HA-tagged PTPN6 (SHP1) bait (human) (UniProt P29350)
[9] = biological target: FLAG-HA-tagged STYXL1 bait (human) (UniProt Q9Y6J8)

Molecule: EVL, endogenous (from UniProt Q9UI08 1-416)
- binding [1]: binds

Molecule: E-cadherin (CDH1), endogenous (human (endogenous in MCF10A)) (receptor)
- binding [2]: binds

Molecule: MARK2 (PAR1), endogenous (from UniProt Q7KZI7 1-788) (enzyme)
- binding [4]: binds

Molecule: P-cadherin (CDH3), endogenous (from UniProt P22223 108-829) (receptor)
- binding [2]: binds

Molecule: β-catenin (CTNNB1), endogenous (from UniProt P35222 1-781)
- binding [2]: binds
- binding [6]: binds

B1: δ-catenin (CTNND1), endogenous (protein, UniProt O60716 1-968)
chain: MDDSEVESTASILASVKEQEAQFEKLTRALEEERRHVSAQLERVRVSPQDANPLMANGTLTRRHQNGRFVGDADLERQKFSDLKLNGPQDHSHLLYSTIPRMQEPGQIVETYTEEDPEGAMSVVSVETSDDGTTRRTETTVKKVVKTVTTRTVQPVAMGPDGLPVDASSVSNNYIQTLGRDFRKNGNGGPGPYVGQAGTATLPRNFHYPPDGYSRHYEDGYPGGSDNYGSLSRVTRIEERYRPSMEGYRAPSRQDVYGPQPQVRVGGSSVDLHRFHPEPYGLEDDQRSMGYDDLDYGMMSDYGTARRTGTPSDPRRRLRSYEDMIGEEVPSDQYYWAPLAQHERGSLASLDSLRKGGPPPPNWRQPELPEVIAMLGFRLDAVKSNAAAYLQHLCYRNDKVKTDVRKLKGIPVLVGLLDHPKKEVHLGACGALKNISFGRDQDNKIAIKNCDGVPALVRLLRKARDMDLTEVITGTLWNLSSHDSIKMEIVDHALHALTDEVIIPHSGWEREPNEDCKPRHIEWESVLTNTAGCLRNVSSERSEARRKLRECDGLVDALIFIVQAEIGQKDSDSKLVENCVCLLRNLSYQVHREIPQAERYQEAAPNVANNTGPHAASCFGAKKGKDEWFSRGKKPIEDPANDTVDFPKRTSPARGYELLFQPEVVRIYISLLKESKTPAILEASAGAIQNLCAGRWTYGRYIRSALRQEKALSAIADLLTNEHERVVKAASGALRNLAVDARNKELIGKHAIPNLVKNLPGGQQNSSWNFSEDTVISILNTINEVIAENLEAAKKLRETQGIEKLVLINKSGNRSEKEVRAAALVLQTIWGYKELRKPLEKEGWKKSDFQVNLNNASRSQSSHSYDDSTLPLIDRNQKSDKKPDREEIQMSNMGSNTKSLDNNYSTPNERGDHNRTLDRSGDLGDMEPLKGTTPLMQDEGQESLEEELDVLVLDDEGGQVSYPSMQKI
- binding [7]: binds
- binding [6]: binds

B4: TRIP6, endogenous (protein, UniProt Q15654 1-476)
chain: MSGPTWLPPKQPEPARAPQGRAIPRGTPGPPPAHGAALQPHPRVNFCPLPSEQCYQAPGGPEDRGPAWVGSHGVLQHTQGLPADRGGLRPGSLDAEIDLLSSTLAELNGGRGHASRRPDRQAYEPPPPPAYRTGSLKPNPASPLPASPYGGPTPASYTTASTPAGPAFPVQVKVAQPVRGCGPPRRGASQASGPLPGPHFPLPGRGEVWGPGYRSQREPGPGAKEEAAGVSGPAGRGRGGEHGPQVPLSQPPEDELDRLTKKLVHDMNHPPSGEYFGQCGGCGEDVVGDGAGVVALDRVFHVGCFVCSTCRAQLRGQHFYAVERRAYCEGCYVATLEKCATCSQPILDRILRAMGKAYHPGCFTCVVCHRGLDGIPFTVDATSQIHCIEDFHRKFAPRCSVCGGAIMPEPGQEETVRIVALDRSFHIGCYKCEECGLLLSSEGECQGCYPLDGHILCKACSAWRIQELSATVTTDC
- binding [4]: binds

The next lines start with the values.

- binding [3]: binds
Molecule: SPRED2, endogenous (from UniProt Q7Z698 1-418)

- binding [5]: binds
Molecule: vinculin, endogenous (from UniProt P18206-2)

- binding [4]: binds
Molecule: CORO1B, endogenous (from UniProt Q9BR76 1-489)

- binding [6]: binds
Molecule: ARHGAP21, endogenous (from UniProt Q5T5U3 1-1958)

- binding [4]: binds
Molecule: PTPN6 (SHP1), endogenous (from UniProt P29350 1-595) (enzyme)

- binding [2]: binds
- binding [7]: binds
Molecule: α-catenin (CTNNA1), endogenous (from UniProt P35221 1-906)

- binding [8]: binds
- binding [9]: binds
Molecule: PRKCH (PKCη), endogenous (from UniProt P24723 1-683) (enzyme)

- binding [7]: binds
- binding [6]: binds
B2: PLEKHA6, endogenous (protein, UniProt Q9Y2H5 1-1048)
chain: MSNKTGGKRPATTNSDIPNHNMVSEVPPERPSVRATRTARKAVAFGKRSHSMKRNPNAPVTKAGWLFKQASSGVKQWNKRWFVLVDRCLFYYKDEKEESILGSIPLLSFRVAAVQPSDNISRKHTFKAEHAGVRTYFFSAESPEEQEAWIQAMGEAARVQIPPAQKSVPQAVRHSHEKPDSENVPPSKHHQQPPHNSLPKPEPEAKTRGEGDGRGCEKAERRPERPEVKKEPPVKANGLPAGPEPASEPGSPYPEGPRVPGGGEQPAQPNGWQYHSPSRPGSTAFPSQDGETGGHRRSFPPRTNPDKIAQRKSSMNQLQQWVNLRRGVPPPEDLRSPSRFYPVSRRVPEYYGPYSSQYPDDYQYYPPGVRPESICSMPAYDRISPPWALEDKRHAFRNGGGPAYQLREWKEPASYGRQDATVWIPSPSRQPVYYDELDAASSSLRRLSLQPRSHSVPRSPSQGSYSRARIYSPVRSPSARFERLPPRSEDIYADPAAYVMRRSISSPKVPPYPEVFRDSLHTYKLNEQDTDKLLGKLCEQNKVVREQDRLVQQLRAEKESLESALMGTHQELEMFGSQPAYPEKLRHKKDSLQNQLINIRVELSQATTALTNSTIEYEHLESEVSALHDDLWEQLNLDTQNEVLNRQIQKEIWRIQDVMEGLRKNNPSRGTDTAKHRGGLGPSATYSSNSPASPLSSASLTSPLSPFSLVSGSQGSPTKPGSNEPKANYEQSKKDPHQTLPLDTPRDISLVPTRQEVEAEKQAALNKVGVVPPRTKSPTDDEVTPSAVVRRNASGLTNGLSSQERPKSAVFPGEGKVKMSVEEQIDRMRRHQSGSMREKRRSLQLPASPAPDPSPRPAYKVVRRHRSIHEVDISNLEAALRAEEPGGHAYETPREEIARLRKMELEPQHYDVDINKELSTPDKVLIPERYIDLEPDTPLSPEELKEKQKKVERIKTLIAKSSMQNVVPIGEGDSVDVPQDSESQLQEQEKRIEISCALATEASRRGRMLSVQCATPSPPTSPASPAPPANPLSSESPRGADSSYTMRV

- binding [1]: binds
B3: PPP1R1B, endogenous (protein, UniProt Q9UD71 1-204)
chain: MDPKDRKKIQFSVPAPPSQLDPRQVEMIRRRRPTPAMLFRLSEHSSPEEEASPHQRASGEGHHLKSKRPNPCAYTPPSLKAVQRIAESHLQSISNLNENQASEEEDELGELRELGYPREEDEEEEEDDEEEEEEEDSQAEVLKVIRQSAGQKTTCGQGLEGPWERPPPLDESERDGGSEDQVEDPALSEPGEEPQRPSPSEPGT

No constants are given. Whether binding was seen depends on the method and setting. Binding seen in cells or lysates may run through a third protein. Here binding means that the protein was enriched with, or labelled near, the bait; the list need not be complete. For part of these data: Tags and fused reporters may be left off the sequences shown. One block for each molecule: values may come before it.
